Results reported in paper PMC6876773.
Substitutions are numbered along the chain they refer to. In names and notes the source's numbering stands. Results are given in words; binding and its absence hold for the method and conditions named. Binding calls can cover weak binding; strength is not graded here.

B1: Pol2 (1128–2222), C-terminal half (domain or fragment, UniProt P21951 1128-2222)
chain: LDPSLEDLDIRTIIDWGYYRERLGSAIQKIITIPAALQGVSNPVPRVEHPDWLKRKIATKEDKFKQTSLTKFFSKTKNVPTMGKIKDIEDLFEPTVEEDNAKIKIARTTKKKAVSKRKRNQLTNEEDPLVLPSEIPSMDEDYVGWLNYQKIKWKIQARDRKRRDQLFGNTNSSRERSALGSMIRKQAESYANSTWEVLQYKDSGEPGVLEVFVTINGKVQNITFHIPKTIYMKFKSQTMPLQKIKNCLIEKSSASLPNNPKTSNPAGGQLFKITLPESVFLEEKENCTSIFNDENVLGVFEGTITPHQRAIMDLGASVTFRSKAMGALGKGIQQGFEMKDLSMAENERYLSGFSMDIGYLLHFPTSIGYEFFSLFKSWGDTITILVLKPSNQAQEINASSLGQIYKQMFEKKKGKIETYSYLVDIKEDINFEFVYFTDISKLYRRLSQETTKLKEERGLQFLLLLQSPFITKLLGTIRLLNQMPIVKLSLNEVLLPQLNWQPTLLKKLVNHVLSSGSWISHLIKLSQYSNIPICNLRLDSMDYIIDVLYARKLKKENIVLWWNEKAPLPDHGGIQNDFDLNTSWIMNDSEFPKINNSGVYDNVVLDVGVDNLTVNTILTSALINDAEGSDLVNNNMGIDDKDAVINSPSEFVHDAFSNDALNVLRGMLKEWWDEALKENSTADLLVNSLASWVQNPNAKLFDGLLRYHVHNLTKKALLQLVNEFSALGSTIVYADRNQILIKTNKYSPENCYAYSQYMMKAVRTNPMFSYLDLNIKRYWDLLIWMDKFNFSGLACIEIEEKENQDYTAVSQWQLKKFLSPIYQPEFEDWMMIILDSMLKTKQSYLKLNSGTQRPTQIVNVKKQDKEDSVENSLNGFSHLFSKPLMKRVKKLFKNQQEFILDPQYEADYVIPVLPGSHLNVKNPLLELVKSLCHVMLLSKSTILEIRTLRKELLKIFELREFAKVAEFKDPSLSLVVPDFLCEYCFFISDIDFCKAAPESIFSCVRCHKAFNQVLLQEHLIQKLRSDIESYLIQDLRCSRCHKVKRDYMSAHCPCAGAWEGTLPRESIVQKLNVFKQVAKYYGFDILLSCIADLTI
B2: Wild type Pol2 fragment 2103–2222 (domain or fragment, UniProt P21951 2103-2222)
chain: VPDFLCEYCFFISDIDFCKAAPESIFSCVRCHKAFNQVLLQEHLIQKLRSDIESYLIQDLRCSRCHKVKRDYMSAHCPCAGAWEGTLPRESIVQKLNVFKQVAKYYGFDILLSCIADLTI
B3: Pol2 fragment 2103–2222 mutated for CysA (C2108S C2111S) (domain or fragment, UniProt P21951 2103-2222)
chain: B2 chain with C6S, C9S
B4: Pol2 fragment 2103–2222 mutated for CysB (C2164S C2167S) (domain or fragment, UniProt P21951 2103-2222)
chain: B2 chain with C62S, C65S
B5: Dpb2 (two-hybrid) (protein, UniProt P24482 1-689)
chain: MFGSGNVLPVKIQPPLLRPLAYRVLSRKYGLSIKSDGLSALAEFVGTNIGANWRQGPATIKFLEQFAAVWKQQERGLFIDQSGVKEVIQEMKEREKVEWSHEHPIQHEENILGRTDDDENNSDDEMPIAADSSLQNVSLSSPMRQPTERDEYKQPFKPESSKALDWRDYFKVINASQQQRFSYNPHKMQFIFVPNKKQNGLGGIAGFLPDIEDKVQMFLTRYYLTNDRVMRNENFQNSDMFNPLSSMVSLQNELSNTNRQQQSSSMSITPIKNLLGRDAQNFLLLGLLNKNFKGNWSLEDPSGSVEIDISQTIPTQGHYYVPGCMVLVEGIYYSVGNKFHVTSMTLPPGERREITLETIGNLDLLGIHGISNNNFIARLDKDLKIRLHLLEKELTDHKFVILGANLFLDDLKIMTALSKILQKLNDDPPTLLIWQGSFTSVPVFASMSSRNISSSTQFKNNFDALATLLSRFDNLTENTTMIFIPGPNDLWGSMVSLGASGTLPQDPIPSAFTKKINKVCKNVVWSSNPTRIAYLSQEIVIFRDDLSGRFKRHRLEFPFNESEDVYTENDNMMSKDTDIVPIDELVKEPDQLPQKVQETRKLVKTILDQGHLSPFLDSLRPISWDLDHTLTLCPIPSTMVLCDTTSAQFDLTYNGCKVINPGSFIHNRRARYMEYVPSSKKTIQEEIYI
B6: Dpb3 (two-hybrid) (protein, UniProt P27344 1-201)
chain: MSNLVKEKAPVFPISKVKKIAKCDPEYVITSNVAISATAFAAELFVQNLVEESLVLAQLNSKGKTSLRLSLNSIEECVEKRDNFRFLEDAIKQLKKNSALDKKRELNMQPGRSDQEVVIEEPELHEDDGVEEEEEEDEVSEEEEPVHNEELLDDSKDQQNDKSTRSVASLLSRFQYKSALDVGEHSDSSDIEVDHTKSTDP
B7: Dpb4 (two-hybrid) (protein, UniProt Q04603 1-196)
chain: MPPKGWRKDAQGNYPTTSYIKEQENITIQDLLFPKSTIVNLAREVPQQSGKKLLINKDASLALQRGATVFVNHLLLFAREIAKSQDKKSCSVDDVLSALDHIGHSALKGPVRDKLDEYQAAVEQRKKEKLDSGEVDADGDIDMGEDKENVPVEKVKEHDEIEEQGDALQDVEESSEKKQKTESQDVETRVQNLEQT
B8: Pol2 N-terminal (1–1265) (domain or fragment, UniProt P21951 1-1265)
chain: MMFGKKKNNGGSSTARYSAGNKYNTLSNNYALSAQQLLNASKIDDIDSMMGFERYVPPQYNGRFDAKDIDQIPGRVGWLTNMHATLVSQETLSSGSNGGGNSNDGERVTTNQGISGVDFYFLDEEGGSFKSTVVYDPYFFIACNDESRVNDVEELVKKYLESCLKSLQIIRKEDLTMDNHLLGLQKTLIKLSFVNSNQLFEARKLLRPILQDNANNNVQRNIYNVAANGSEKVDAKHLIEDIREYDVPYHVRVSIDKDIRVGKWYKVTQQGFIEDTRKIAFADPVVMAFDIETTKPPLKFPDSAVDQIMMISYMIDGEGFLITNREIISEDIEDFEYTPKPEYPGFFTIFNENDEVALLQRFFEHIRDVRPTVISTFNGDFFDWPFIHNRSKIHGLDMFDEIGFAPDAEGEYKSSYCSHMDCFRWVKRDSYLPQGSQGLKAVTQSKLGYNPIELDPELMTPYAFEKPQHLSEYSVSDAVATYYLYMKYVHPFIFSLCTIIPLNPDETLRKGTGTLCEMLLMVQAYQHNILLPNKHTDPIERFYDGHLLESETYVGGHVESLEAGVFRSDLKNEFKIDPSAIDELLQELPEALKFSVEVENKSSVDKVTNFEEIKNQITQKLLELKENNIRNELPLIYHVDVASMYPNIMTTNRLQPDSIKAERDCASCDFNRPGKTCARKLKWAWRGEFFPSKMDEYNMIKRALQNETFPNKNKFSKKKVLTFDELSYADQVIHIKKRLTEYSRKVYHRVKVSEIVEREAIVCQRENPFYVDTVKSFRDRRYEFKGLAKTWKGNLSKIDPSDKHARDEAKKMIVLYDSLQLAHKVILNSFYGYVMRKGSRWYSMEMAGITCLTGATIIQMARALVERVGRPLELDTDGIWCILPKSFPETYFFTLENGKKLYLSYPCSMLNYRVHQKFTNHQYQELKDPLNYIYETHSENTIFFEVDGPYKAMILPSSKEEGKGIKKRYAVFNEDGSLAELKGFELKRRGELQLIKNFQSDIFKVFLEGDTLEGCYSAVASVCNRWLDVLDSHGLMLEDEDLVSLICENRSMSKTLKEYEGQKSTSITTARRLGDFLGEDMVKDKGLQCKYIISSKPFNAPVTERAIPVAIFSADIPIKRSFLRRWTLDPSLEDLDIRTIIDWGYYRERLGSAIQKIITIPAALQGVSNPVPRVEHPDWLKRKIATKEDKFKQTSLTKFFSKTKNVPTMGKIKDIEDLFEPTVEEDNAKIKIARTTKKKAVSKRKRNQLTNEEDPLVLPSEIPSM
B9: Mrc1 (two-hybrid) (protein, UniProt P25588 1-1096)
chain: MDDALHALSSLTAKKRTTTYKKVAVPILDENDNTNGNGPNDIDNPPELTGNGFLFANATLNRVKNRLEGKKAPEQNHNNGKDRSENSLPTQLISNLYDGGEELEKSEVKDNSYSEKNVSSSFTQTQRIPVSIQQDKVFNVPIHSVNDGKPTQLIKEDGLVNETSQALKTPLTTGRPGATQRIDSSGATSQTQPIKSIEPQSQIITTSSNHSNALSPKIPIIPTELIGTSPLFQSIQNRGPDTQMDVPPQTAHDEDKTQAIGIPQATHQEQKTQIDTVAQTLQDEVPHTLKIREIQSELASEDSKREKARNVEYKKPQKPIPTKKFFSKESFLADFDDSSSNEDDDIKLENAHPKPVQNDDELHENKSVELNLTDETRINEKRVPLLSSYANNLKREIDSSKCITLDLDSDSDEYGDDDMDSIKLSKDESVLPISQLSKATILNLKARLSKQNQKLSQRPNKSKDPKVDHNVLLNTLRKASRKQILDHQKEVIETKGLKLEDMAKEKEIVENLLEQEILRNKRIRQKEKRREKLEENDFQLNAHDSGSDSGSESSGFALSGNEIADYESSGSENDNRRESDSEKEDDEIILKQKKSHHVKHIINESDSDTEVEAKPKEKADESLPKRIAINLGHYGDNIGEDTDKFQETNVLDTQNIEEVMAERNTIENEVKDDVYVNEEADEAIRRQLIDKEKLQLKQKEKEHEAKIKELKKRGVTNFFEMEAEESEDEWHGIGGADGEGSDDYDSDLEKMIDDYSKNNFNPHEIREMLAAENKEMDIKMINKILYDIKNGGFRNKRAKNSLELELSDDDEDDVLQQYRLKRRELMRKRRLEIGDDAKLVKNPKSSAFFESMVEDIIEYKNPFGAEEEYNLDITSTATDLDTQDNSINVGDNTGNNEQKPVDQKNKKVIISEDFVQKSLSFLKSNNYEDFETDKELSRIQHGNDEAIEDLYTLKQNSSIKSFTNSQTDSTTSKTVNTIIDLEKRPEDEDEVENGDTSLVGVFKHPSIIKSFASRTDINDKFKEGNKTVKILKSYKTVGSSKASITYMGKTRKLIAPKRKTEGSHRYHHDHHNKKMKMKTKTKSNKLFESGQDSFDN

Target: SUMO (Smt3AAΔ, an allele that cannot be used as a moiety for SUMOylation) (budding yeast)
Assay: two-hybrid; Gal4-based, pGADT7 and pGBKT7 derivatives in strain PJ69-4A; growth on SC lacking Trp, Leu, His (weak) or Trp, Leu, His, Ade (strong selection); serial dilutions

Row | Binder | binding
1 | B1 | binds
2 | B2 | binds
3 | B3 | binds
4 | B4 | binds
5 | B5 | no binding
6 | B6 | no binding
7 | B7 | no binding
8 | B8 | no binding
9 | B9 | no binding
